Paper PMC12107940
Results are given in words; binding and its absence hold for the method and conditions named. Binding seen in cells or lysates may run through a third protein. Some entries that bind do so weakly or less than the wild type.

Molecular target: T1, TRIM29 (human (endogenous in HCC1806)), Q14134
T1 chain: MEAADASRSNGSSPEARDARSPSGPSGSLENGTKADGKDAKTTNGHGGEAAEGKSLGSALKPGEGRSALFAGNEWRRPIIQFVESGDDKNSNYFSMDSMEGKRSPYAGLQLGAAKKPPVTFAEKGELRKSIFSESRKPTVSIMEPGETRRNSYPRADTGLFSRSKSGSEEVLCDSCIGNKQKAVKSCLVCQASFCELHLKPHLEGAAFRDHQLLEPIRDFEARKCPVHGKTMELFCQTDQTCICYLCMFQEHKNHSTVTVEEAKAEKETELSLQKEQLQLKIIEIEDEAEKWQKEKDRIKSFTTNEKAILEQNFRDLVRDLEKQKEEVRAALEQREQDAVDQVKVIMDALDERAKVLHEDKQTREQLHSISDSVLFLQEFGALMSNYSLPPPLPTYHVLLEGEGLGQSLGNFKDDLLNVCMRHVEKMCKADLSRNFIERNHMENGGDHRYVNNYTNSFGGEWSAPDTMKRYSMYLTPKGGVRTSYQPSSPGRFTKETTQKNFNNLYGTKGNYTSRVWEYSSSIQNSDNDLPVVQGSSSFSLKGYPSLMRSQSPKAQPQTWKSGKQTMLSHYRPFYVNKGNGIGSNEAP
Assay: co-IP; immunoprecipitation with TRIM29, immunoblot for β-catenin; endogenous proteins in HCC1806 and carboplatin-resistant HCC1806-CarboR cells
Details: remark: other sources report otherwise

B1: β-catenin, P35222 1-781 (protein)
chain: MATQADLMELDMAMEPDRKAAVSHWQQQSYLDSGIHSGATTTAPSLSGKGNPEEEDVDTSQVLYEWEQGFSQSFTQEQVADIDGQYAMTRAQRVRAAMFPETLDEGMQIPSTQFDAAHPTNVQRLAEPSQMLKHAVVNLINYQDDAELATRAIPELTKLLNDEDQVVVNKAAVMVHQLSKKEASRHAIMRSPQMVSAIVRTMQNTNDVETARCTAGTLHNLSHHREGLLAIFKSGGIPALVKMLGSPVDSVLFYAITTLHNLLLHQEGAKMAVRLAGGLQKMVALLNKTNVKFLAITTDCLQILAYGNQESKLIILASGGPQALVNIMRTYTYEKLLWTTSRVLKVLSVCSSNKPAIVEAGGMQALGLHLTDPSQRLVQNCLWTLRNLSDAATKQEGMEGLLGTLVQLLGSDDINVVTCAAGILSNLTCNNYKNKMMVCQVGGIEALVRTVLRAGDREDITEPAICALRHLTSRHQEAEMAQNAVRLHYGLPVVVKLLHPPSHWPLIKATVGLIRNLALCPANHAPLREQGAIPRLVQLLVRAHQDTQRRTSMGGTQQQFVEGVRMEEIVEGCTGALHILARDVHNRIVIRGLNTIPLFVQLLYSPIENIQRVAAGVLCELAQDKEAAEAIEAEGATAPLTELLHSRNEGVATYAAAVLFRMSEDKPQDYKKRLSVELTSSLFRTEPMAWNETADLGLDIGAQGEPLGYRQDDPSYRSFHSGGYGQDALGMDPMMEHEMGGHHPGADYPVDGLPDLGHAQDLMDGLPPGDSNQLAWFDTDL
binding: binds
